Measurements reported in paper PMC5227094.
These are yes or no findings as the source states them, for the method shown. Binding seen in cells or lysates may run through a third protein. Some results given as binding are weak or reduced against the parent protein; the word gives no strength.

Target: GluN2B (mouse (endogenous in forebrain)) (UniProt Q01097)
Test: co-IP; immuno-depletion: extract supernatant of Glun1^TAP/TAP/Psd95^EGFP/EGFP mice incubated with antibodies (GluN2A, GluN2B, GFP, PSD95/PSD93, non-specific IgG) 2-16 h at 6-10 °C, captured on protein G magnetic beads; what is left separated by BNP and immunoblotted with Flag antibody for TAP-GluN1

- binding: binds
Substance: GluN2A (from UniProt P35436 23-1464)
